In PMC2712095:
No constants are given. Whether binding was seen depends on the method and setting. Binding seen in cells or lysates may run through a third protein. Some binding calls cover weakened binding; strength is not graded here.

Amino acid sequences for entries named in this document (tags omitted). Residues count along the entry.
UniProt Q08722, residues 19-323: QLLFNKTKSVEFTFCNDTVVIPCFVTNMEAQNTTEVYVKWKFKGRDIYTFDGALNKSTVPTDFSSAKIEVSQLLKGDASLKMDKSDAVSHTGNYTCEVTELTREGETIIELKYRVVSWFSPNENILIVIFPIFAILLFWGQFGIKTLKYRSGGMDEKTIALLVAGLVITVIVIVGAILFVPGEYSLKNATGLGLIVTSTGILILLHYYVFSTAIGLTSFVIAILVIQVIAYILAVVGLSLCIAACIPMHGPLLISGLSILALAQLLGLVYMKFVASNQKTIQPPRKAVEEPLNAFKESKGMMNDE
UniProt P17301, residues 30-1181: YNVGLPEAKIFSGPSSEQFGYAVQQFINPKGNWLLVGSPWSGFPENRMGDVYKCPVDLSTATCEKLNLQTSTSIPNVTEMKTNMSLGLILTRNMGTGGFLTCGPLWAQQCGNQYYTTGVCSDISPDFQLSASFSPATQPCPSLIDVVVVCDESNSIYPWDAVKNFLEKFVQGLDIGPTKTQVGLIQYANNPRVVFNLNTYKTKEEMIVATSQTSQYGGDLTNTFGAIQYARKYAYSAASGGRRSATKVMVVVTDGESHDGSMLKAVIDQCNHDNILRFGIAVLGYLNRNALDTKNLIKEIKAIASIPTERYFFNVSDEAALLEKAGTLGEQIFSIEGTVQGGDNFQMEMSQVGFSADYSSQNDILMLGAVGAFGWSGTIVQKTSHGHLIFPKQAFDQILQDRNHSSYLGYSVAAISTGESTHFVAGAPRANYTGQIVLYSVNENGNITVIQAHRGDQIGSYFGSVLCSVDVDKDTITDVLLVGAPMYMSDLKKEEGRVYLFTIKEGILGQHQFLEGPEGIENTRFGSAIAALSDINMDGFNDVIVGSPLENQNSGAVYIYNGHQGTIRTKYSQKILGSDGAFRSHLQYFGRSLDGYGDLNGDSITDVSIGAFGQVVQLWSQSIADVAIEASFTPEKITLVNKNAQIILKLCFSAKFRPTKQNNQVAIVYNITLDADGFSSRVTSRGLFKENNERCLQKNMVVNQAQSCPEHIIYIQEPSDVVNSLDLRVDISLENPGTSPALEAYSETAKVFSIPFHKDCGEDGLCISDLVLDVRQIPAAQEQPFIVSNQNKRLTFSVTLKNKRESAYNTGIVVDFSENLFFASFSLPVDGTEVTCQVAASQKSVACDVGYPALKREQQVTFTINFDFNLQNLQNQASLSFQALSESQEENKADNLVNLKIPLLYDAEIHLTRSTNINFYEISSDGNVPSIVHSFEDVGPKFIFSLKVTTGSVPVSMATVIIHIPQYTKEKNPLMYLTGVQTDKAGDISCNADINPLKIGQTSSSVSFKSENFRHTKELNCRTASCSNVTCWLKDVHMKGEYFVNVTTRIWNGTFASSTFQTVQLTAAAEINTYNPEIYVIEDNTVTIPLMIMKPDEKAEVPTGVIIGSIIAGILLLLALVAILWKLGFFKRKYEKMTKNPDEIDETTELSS

Target: CD47 (Integrin Associated Protein) (human (endogenous in Int 407)) (UniProt Q08722)
Test: co-IP; anti-CD47 (MEM122) immunoprecipitation from lysates (1% octyl-β-D-1-thioglucopyranoside) of Int 407 cells adhered for 1 h to collagen I or BSA coated dishes, overnight at 4°C, protein G; Western blot for α2 integrin and CD47; cells pre-treated or not with PTX, anti-CD47 B6H12, anti-β2 integrin antibody or control IgG

- binding: binds
Substance: α2 integrin (from UniProt P17301 30-1181)
